Data taken from publication PMC11395002.

Test system: SlHB8-GST (Solanum lycopersicum)
Test: EMSA
Conditions: biotin probe, cold competitor 5x and 20x; Thermo EMSA kit; pH and temperature not stated; recombinant protein; protein details: GST (pGEX4T1); label: biotin (unlabeled as cold competitor)

GTCTATATTCAATCATTGTTATGCTATATGC (double strand) [SlDYT1 promoter BS probe, wild type]
binding result: binds

Construct, isoform or probe ends are uncertain for at least one entry.
